Where “and” joins values, the source holds several entries; their conditions need not be identical. Equal values may be shown once. The whole screen tested about 400,000 compounds, of which about 5,500 (1.4%) were called active. This list was built around the results that the source calls inconclusive (neither active nor inactive); the mix of calls is not that of the screen. Calls come from the whole dose curve; as a rule, active = well fitted cell-killing curve with a large enough effect; inconclusive = small, poorly fitted or top-dose-only effect, or effect the other way; inactive = flat fitted curve, though single readings scatter. Where the call is inconclusive, the potency comes from a doubtful curve fit.
Test: qHTS assay for MDR1-selective chemotherapeutics: Primary screen using the parental adenocarcinoma cell KB-3-1; note: nearly all actives have a fitted effect of over 60% in size
Settings: KB-3-1 viability, CellTiter-Glo ATP luminescence, 72 h; series mostly up to 46.1 µM
Procedure, shortened: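 Using CellTiter-Glo luminescence, growth of non-resistant KB-3-1 adenocarcinoma cells is assessed 72 h after pin-tool compound addition at 37 °C. Normalized responses across the concentration series yield fitted curves.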
Potency is the fitted concentration of half-maximal effect.

Row | SMILES | Potency
1 | COc1ccc(S(=O)(=O)NCc2cccnc2)cc1NC(=O)c1ccc(Cl)cc1 | inactive
2 | Nc1cccc(-c2nc3cc(S(=O)(=O)c4ccc5oc(-c6cccc(N)c6)nc5c4)ccc3o2)c1 | inconclusive: 13 µM [cytotoxic, partial curve, poor fit]
3 | c1ccc(-c2noc(-c3cccs3)n2)nc1 | inconclusive: 20.6 µM [cytotoxic, single point]
4 | CC(=O)Nc1sc(C)c(C)c1C(=O)OCC(=O)Nc1cc(S(C)(=O)=O)ccc1Cl | inconclusive: 25.9 µM [cytotoxic, single point]
5 | COc1cc(OC)cc(C(=O)Nc2cccc(NC(=O)c3ccccc3)c2)c1 | inactive
6 | COc1ccc2cc(C(=O)/C=C/c3cc(OC)c(O)c(OC)c3)ccc2c1 | inconclusive: 29.1 µM [cytotoxic, single point]
7 | CN(CCc1ccccc1)C(C(=O)c1ccc2c(c1)OCO2)c1nnnn1-c1ccccc1NC(=O)OC(C)(C)C (centres undefined) | inconclusive: 20.6 µM [cytotoxic, single point]
8 | CN(c1ccccc1)S(=O)(=O)c1cccc(C(=O)Nc2nn[nH]n2)c1 | inactive
9 | COc1ccc(Br)cc1CN(C)C(C)C(=O)Nc1cc([N+](=O)[O-])ccc1OC (centres undefined) | inconclusive: 25.9 µM [cytotoxic, partial curve, poor fit]
10 | C#CCOCC1CN(C)C(=O)O1 (centres undefined) | inactive
11 | CCCCCNc1nc2sc3c(c2c(=O)n1-c1cccc(Cl)c1)CCN(C)C3 | inconclusive: 25.9 µM [cytotoxic, single point]
12 | CCN(CC)S(=O)(=O)c1ccc(C(O)=C(C#N)c2nc3ccccc3n2C)cc1 | inconclusive: 18.4 µM [cytotoxic, single point]
13 | CCCCNC(=O)c1ccc(NS(=O)(=O)c2ccccc2)cc1 | inactive
14 | Cc1nn(-c2ccccc2)c(N2CCCC2)c1/C=N/NC(=S)Nc1ccc(F)cc1 | inconclusive: 20.6 µM [cytotoxic, single point]
15 | O=C(Nc1cccc(-c2cn3ccccc3n2)c1)C1CC1 | inconclusive: 10.3 µM [rising, partial curve, poor fit]
16 | Cc1ccc(NC(=O)CSCn2nnc3c(=O)[nH]c(Cc4ccc(F)cc4)nc32)c(C)c1 | inconclusive: 16.4 µM [cytotoxic, single point]
17 | CCOC(=O)C1=C(O)c2ccccc2C(=O)/C1=C\c1ccc(C)cc1 | inconclusive: 20.6 µM [cytotoxic, single point]
18 | Cc1cc(Cl)ccc1Oc1nc(-c2ccc(F)cc2)ccc1C#N | inconclusive: 6.51 µM [cytotoxic, partial curve]
19 | Cn1c(=O)c2cc(NC(=O)CCc3ccc4c(c3)OCO4)ccc2n1Cc1ccc(F)cc1 | inconclusive: 29.1 µM [cytotoxic, single point]
20 | Cc1ccc(NC(=S)NCc2ccc(S(N)(=O)=O)cc2)cc1Cl | inconclusive: 20.6 µM [cytotoxic, single point]
21 | Cc1c(CC(=O)NCc2ccccc2)c(=O)oc2c(C)c(O)ccc12 | active: 13 µM
22 | Cc1cccc(N2CCN(C(=O)c3ccc4c(c3)N(Cc3ccccc3F)C(=O)c3ccccc3S4=O)CC2C)c1 (centres undefined) | inconclusive: 29.1 µM [cytotoxic, single point]

Row | SMILES | Potency
23 | COc1ccccc1NC(=O)c1nnn(CC(=O)Nc2cccc(SC)c2)c1N | inconclusive: 32.6 µM [rising, single point]
24 | CCCCC(=O)NC(c1ccccc1)c1ccc2cccnc2c1O (centres undefined) | inconclusive: 2.31 µM [cytotoxic, full curve]
25 | O=C(Nc1ccccc1F)c1ccc([N+](=O)[O-])s1 | inconclusive: 29.1 µM [cytotoxic, single point]
26 | Cc1coc2c1C(=O)C(=O)c1c-2ccc2c1CCCC2(C)C | active: 6.51 µM
27 | Cn1c2ccccc2c2nnc(SCCOc3ccccc3)nc21 | inconclusive: 2.31 µM [rising, full curve]
28 | C=C1Nc2ccccc2C(=O)N1c1ccc(C(=O)N2CCN(C(=O)c3ccco3)CC2)cc1 | inconclusive: 16.4 µM [rising, partial curve]
29 | Cn1c(/N=C/c2c(O)ccc3ccccc23)nc2ccccc21 | inactive
30 | O=C(CSc1nnc(SCc2ccc(Cl)cc2)s1)N/N=C/c1c[nH]c2ccccc12 | inconclusive: 29.1 µM [cytotoxic, single point]
31 | Cc1ccc(CC2(OCCN(C)C)CCC(C(C)(C)C)CC2)cc1 (centres undefined) | inconclusive: 23.1 µM [cytotoxic, partial curve, poor fit]
32 | CCN1C(=O)N[C@@H](c2cccc(C(F)(F)F)c2)C(C(C)=O)=C1C | inconclusive: 14.6 µM [rising, partial curve, poor fit]
33 | COc1cccc(NC(=O)N(C)C[C@H]2Oc3cc(C#Cc4ccncc4)ccc3S(=O)(=O)N([C@H](C)CO)C[C@H]2C)c1 | inconclusive: 23.1 µM [cytotoxic, single point]
34 | O=C(Cc1c(Cl)cccc1Cl)Nc1cccnc1 | inactive
35 | COc1ccc(CNC(=O)C[C@H]2C[C@H](C(=O)N3CCOCC3)[C@@]3(CCC4CCCC4)c4[nH]c5ccc(Cl)cc5c4CCN3C2=O)cc1OC | inconclusive: 20.6 µM [cytotoxic, single point]
36 | Cc1ccc(Sc2c([N+](=O)[O-])c(=O)n(C)c3ccccc23)cc1 | inconclusive: 18.4 µM [cytotoxic, single point]
37 | O=[N+]([O-])c1ccc(CN2CCN(Cc3c[nH]c4ccccc34)CC2)cc1 | inactive
38 | COc1ccc(/C=c2\[nH]c(=O)/c(=C/c3ccc(OC)c(OC)c3)[nH]c2=O)cc1OC | inconclusive: 29.1 µM [rising, single point]
39 | Cn1c(=O)oc2cc(S(=O)(=O)N3CCC(C(=O)N4CC=C(c5ccccc5)CC4)CC3)ccc21 | inconclusive: 25.9 µM [cytotoxic, partial curve, poor fit]
40 | OCCN=c1cc(-c2ccccc2)oc2ccc(Cl)cc12 | inconclusive: 20.6 µM [cytotoxic, partial curve, poor fit]
41 | CCOc1ccc2c(c1)-c1c(ssc1=S)C(C)(C)N2C(=O)c1ccco1 | inconclusive: 2.06 µM [cytotoxic, partial curve, poor fit]
42 | O=C(COC(=O)c1cc(=O)[nH]c2ccccc12)c1cccs1 | inactive
43 | C=CCn1c(O)c(N=NC(=S)Nc2cccc(C)c2)c2ccccc21 | inconclusive: 6.51 µM [cytotoxic, full curve, poor fit]
44 | O=C1Cc2c([nH]c3ccc(Br)cc23)-c2ccccc2N1 | inconclusive: 29.1 µM [cytotoxic, single point]

Row | SMILES | Potency
45 | CC(C)=CC(=O)O[C@@H]1Cc2cc3ccc(=O)oc3cc2OC1(C)C | inconclusive: 29.1 µM [cytotoxic, single point]
46 | CCc1ccccc1N(CC(=O)NCc1ccco1)C(=O)CCC(=O)Nc1nccs1 | inactive
47 | Cc1cc(C)cc(N=c2c([N+](=O)[O-])nn(-c3ccc4c(c3)OCCO4)n2O)c1 | inconclusive: 18.4 µM [cytotoxic, single point]
48 | Cc1nc(C(=O)NNC(=O)c2ccccc2)c(C(F)(F)F)o1 | inconclusive: 32.6 µM [cytotoxic, single point]
49 | CCCCn1c(N)c(N(CC(C)C)C(=O)c2ccc(C)c(S(=O)(=O)N3CCCCC3)c2)c(=O)[nH]c1=O | inactive
50 | CCn1cc(S(=O)(=O)c2ccc(OC)cc2)c(=O)c2cc(F)c(N3CCC(C)CC3)cc21 | inactive
51 | CNCCCC12CCC(c3ccccc31)c1ccccc12 | inconclusive: 29.1 µM [cytotoxic, single point] and inconclusive: 25.9 µM [cytotoxic, single point]
52 | O=C(COc1ccccc1Br)NC1CCCC1 | inconclusive: 25.9 µM [cytotoxic, single point]
53 | Cc1ccc(C(=O)/C=C/c2ccc3c(c2)OCCO3)c(O)c1 | inactive
54 | CCCCCCSc1ccc(-c2nc3ccc(C)cn3c2NCc2ccccc2)cc1OC | inconclusive: 20.6 µM [cytotoxic, partial curve, poor fit] and inconclusive: 29.1 µM [cytotoxic, partial curve, poor fit]
55 | CCOc1cc(CNc2ccc(CNc3ncn[nH]3)cc2)ccc1OCc1ccccc1 | active: 23.1 µM
56 | Cc1[nH]oc(=O)c1N=Nc1ccccc1 | inconclusive: 29.1 µM [cytotoxic, single point]
57 | CN(C(=O)C1CCCN(c2ncnc3c2nc2n3CCCCC2)C1)c1cccc(Cl)c1 (centres undefined) | inconclusive: 8.2 µM [cytotoxic, single point]
58 | COc1cccc(C(=O)NC(C)c2ccc(Br)cc2)c1 (centres undefined) | inactive
59 | CC1=C(C(=O)OCC2CCCCC2)C(c2ccc(O)cc2)NC(=O)N1 (centres undefined) | inactive
60 | Cc1cc(C)c2c(c1)-c1c(ssc1=S)C(C)(C)N2C(=O)CSc1nncn1C | active: 20.6 µM
61 | COc1ccc(C(=O)Nc2cc3c4c(c2)CC(=O)N4CCC3)cc1 | inconclusive: 18.4 µM [cytotoxic, single point]
62 | Cc1cccc(C(=O)NNC(=O)c2ccccc2O)c1 | inconclusive: 16.4 µM [cytotoxic, single point]
63 | COc1ccc(C(=O)NC(=S)NNC(=O)CCc2ccccc2)cc1 | inconclusive: 16.4 µM [cytotoxic, single point]
64 | O=C(N/N=C/c1ccccn1)c1ccc(NC(=O)c2ccc(F)cc2)cc1 | inconclusive: 20.6 µM [rising, partial curve, poor fit]

Given in markdown: entries from further up

| Row | SMILES | Potency |
| --- | --- | --- |
| 51 | CNCCCC12CCC(c3ccccc31)c1ccccc12 | inconclusive: 29.1 µM [cytotoxic, single point] and inconclusive: 25.9 µM [cytotoxic, single point] |
| 52 | O=C(COc1ccccc1Br)NC1CCCC1 | inconclusive: 25.9 µM [cytotoxic, single point] |
| 53 | Cc1ccc(C(=O)/C=C/c2ccc3c(c2)OCCO3)c(O)c1 | inactive |

Reference: PubChem BioAssay AID1347075 (National Center for Advancing Translational Sciences (NCATS), 2019)
